US5783703A, “Sulfur-containing compounds method for their use and prodction” (Lederle (Japan), Ltd., priority 1993, dated 1998)

What was measured:
[1] = In situ absorption from rat intestinal loop; assay type: in vivo, rats of Wistar strain; conditions: rat jejunal loop, 20 mg/kg; only deesterified Compound (28) detected
Procedure: 7-week-old male rats of Wistar strain were used after fasting overnight. After anesthetizing the animals with ether, the intestine was exteriorized and an acute loop of 30 cm length was prepared from the upper part of jejunum by ligature of both ends. 0.2% physiological saline solutions of the test compounds were injected at a dose of 20 mg/kg into the loop with a syringe, and the loop was returned. About 0.4 ml blood was taken from the vena jugularis at 10, 30, 60 and 120 minutes after dosing.

[2] = Oral absorption study in mice; assay type: in vivo, mice of ddY strain; conditions: 100 mg/kg, only deesterified Compound (28) detected
Procedure: 5-week-old male mice of ddY strain were used after fasting overnight. The test compounds in 1% physiological saline solution at a dose of 100 mg/kg were administered orally to a group of 2 mice. Blood was taken from the vena jugularis at 15, 30, 60 and 120 minutes after dosing.

C[C@@H](O)[C@H]1C(=O)N2C(C(=O)OCOC(=O)C(C)(C)C)=C(SC3CN(C4=NCCS4)C3)[C@H](C)[C@H]12 [Compound (32), pivaloyloxymethyl (1R,5S,6S)-2-[1-(1,3-thiazolin-2-yl)azetidin-3-yl]thio-6-[(R)-1-hydroxyethyl]-1-methyl-carbapen-2-em-3-carboxylate]
plasma level of the administered ester itself [1]: undetectable | plasma level of the administered ester itself [2]: undetectable
